Paper PMC8433439, “Bivalent ligands promote endosomal trafficking of the dopamine D3 receptor-neurotensin receptor 1 heterodimer” (Communications Biology, 2021)
No constants are given. Whether binding was seen depends on the method and setting. Binding seen in cells or lysates may run through a third protein. Some results given as binding are weak or reduced against the parent protein; the word gives no strength.

How the values were obtained:
[1] = molecular target: wild-type human dopamine D3 receptor (human) (UniProt P35462); assay: proximity ligation; in situ PLA in HEK293T cells transiently transfected with wild-type D3R and NTSR1 (method in Supplementary Methods)
[2] = molecular target: D3R-Rluc (human dopamine D3 receptor fused to Renilla luciferase Rluc8) (human) (UniProt P35462); assay: FRET or BRET; BRET displacement in live HEK293T cells: 500 ng D3R-Rluc, 100 ng NTSR1-mVenus, 0-150 ng non-labelled NTSR1 or CXCR4 plasmid; ΔBRET induced by 10 nM 1d or 1 µM NT(8-13)
[3] = molecular target: D3R-ProLink (D3R C-terminally tagged with ARMS2-PK2) (human) (UniProt P35462); assay: split reporter; DiscoverX PathHunter enzyme fragment complementation, HEK293 stably expressing β-arrestin2-enzyme acceptor, 2 µg D3R-ProLink cotransfected with 0.5 µg untagged NTSR1; stimulated 5 h at 37 °C with NT(8-13), quinpirole (no change) or bivalent ligands; 1 µM haloperidol preincubation in some
[4] = molecular target: D3R-Nluc (IL6-D3R-GGGAS-Nluc) (human) (UniProt P35462); assay: FRET or BRET; live-cell BRET imaging, HEK293SL cells, 100 ng D3R-Nluc donor, 400 ng mVenus acceptor, 10 µM coelenterazine 400a, HBSS; before and after 10 nM ligand 1d
[5] = molecular target: D2SR-Rluc (dopamine D2 receptor, short form, fused to Rluc8) (UniProt P14416); assay: FRET or BRET; BRET saturation in live HEK293T cells: constant BRET donor (100 ng D2SR-Rluc or 500 ng D3R-Rluc; Nluc in place of Rluc in one series), 0-800 ng NTSR1-mVenus, PBS, 5 µM coelenterazine-h, room temperature; vehicle, 1 µM monovalent ligands (lowered BRETmax), 10 nM bivalent ligands (raised BRETmax for D3R), 10 µM haloperidol preincubation
[6] = molecular target: D3R-Nluc (IL6-D3R-GGGAS-Nluc) (human) (UniProt P35462); assay: as above
[7] = molecular target: D3R-Rluc (human dopamine D3 receptor fused to Renilla luciferase Rluc8) (human) (UniProt P35462); assay: as above
[8] = molecular target: NTSR1-ProLink (NTSR1 fused in frame with the PK1 sequence) (human) (UniProt P30989); assay: split reporter; DiscoverX PathHunter enzyme fragment complementation, HEK293 stably expressing β-arrestin2-enzyme acceptor, one ProLink-tagged receptor expressed alone; stimulated 5 h at 37 °C (quinpirole, NT(8-13) or bivalent ligands)

Measured: binding

wild-type human neurotensin receptor 1 (from UniProt P30989 1-418)
binds: [1] | [2] | [3]

NTSR1-mVenus (neurotensin receptor 1 tagged with the mVenus fluorescent protein) (from UniProt P30989 1-418)
binds: [4] | [2] | [5] | [6] | [7]

β-arrestin2 fused to an engineered galactosidase (enzyme acceptor, DiscoverX PathHunter) (from UniProt P32121 1-409)
binds: [8]
